Source: publication PMC6395391
Results are given in words; binding and its absence hold for the method and conditions named. Binding seen in cells or lysates may run through a third protein. Some results given as binding are weak or reduced against the parent protein; the word gives no strength. For some of these results: Where a sequence is shown, tags or fusion partners need not be part of it.

By UniProt entry, the sequences of proteins in these tests, tags left out.
UniProt P24385: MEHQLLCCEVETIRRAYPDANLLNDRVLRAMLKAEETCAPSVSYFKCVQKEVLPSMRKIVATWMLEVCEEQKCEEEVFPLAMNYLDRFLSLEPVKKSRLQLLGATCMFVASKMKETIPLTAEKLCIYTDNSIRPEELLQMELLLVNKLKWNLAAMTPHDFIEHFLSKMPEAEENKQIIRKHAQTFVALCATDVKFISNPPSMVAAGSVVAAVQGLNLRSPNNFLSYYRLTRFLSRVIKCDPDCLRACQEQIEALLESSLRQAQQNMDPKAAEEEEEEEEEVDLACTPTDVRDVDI

T1: HA-OGT (O-GlcNAc transferase) (UniProt O15294)
T1 sequence: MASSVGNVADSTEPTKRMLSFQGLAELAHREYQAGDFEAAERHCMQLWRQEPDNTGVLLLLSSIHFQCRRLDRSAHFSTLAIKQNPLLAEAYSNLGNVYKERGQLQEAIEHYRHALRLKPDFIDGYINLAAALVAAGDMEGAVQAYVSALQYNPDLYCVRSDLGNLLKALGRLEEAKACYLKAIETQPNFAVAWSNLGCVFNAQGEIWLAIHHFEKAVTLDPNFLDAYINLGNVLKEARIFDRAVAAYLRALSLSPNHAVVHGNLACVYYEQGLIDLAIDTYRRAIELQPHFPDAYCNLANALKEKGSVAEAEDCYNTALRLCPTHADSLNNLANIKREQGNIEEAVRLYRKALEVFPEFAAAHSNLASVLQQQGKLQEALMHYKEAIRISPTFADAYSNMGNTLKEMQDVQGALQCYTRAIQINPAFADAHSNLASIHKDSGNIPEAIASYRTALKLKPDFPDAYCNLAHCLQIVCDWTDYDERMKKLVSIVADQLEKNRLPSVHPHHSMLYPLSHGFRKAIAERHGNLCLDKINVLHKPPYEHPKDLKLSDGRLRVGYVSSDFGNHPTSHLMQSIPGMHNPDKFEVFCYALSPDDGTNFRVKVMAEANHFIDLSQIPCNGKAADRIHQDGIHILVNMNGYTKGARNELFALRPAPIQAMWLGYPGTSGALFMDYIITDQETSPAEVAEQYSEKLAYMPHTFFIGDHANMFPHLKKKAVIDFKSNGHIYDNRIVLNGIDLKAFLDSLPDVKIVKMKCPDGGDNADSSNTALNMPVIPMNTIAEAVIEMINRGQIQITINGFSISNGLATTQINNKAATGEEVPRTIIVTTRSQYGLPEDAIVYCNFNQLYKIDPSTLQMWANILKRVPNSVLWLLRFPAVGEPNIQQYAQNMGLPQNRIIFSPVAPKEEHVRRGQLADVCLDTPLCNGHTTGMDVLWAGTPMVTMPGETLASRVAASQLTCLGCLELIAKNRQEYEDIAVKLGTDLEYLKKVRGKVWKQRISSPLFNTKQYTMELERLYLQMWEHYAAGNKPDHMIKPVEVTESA

T2: O-GlcNAc transferase (OGT) (endogenous, HEK293T) (human (endogenous in HEK293T)) (UniProt O15294)
T2 sequence: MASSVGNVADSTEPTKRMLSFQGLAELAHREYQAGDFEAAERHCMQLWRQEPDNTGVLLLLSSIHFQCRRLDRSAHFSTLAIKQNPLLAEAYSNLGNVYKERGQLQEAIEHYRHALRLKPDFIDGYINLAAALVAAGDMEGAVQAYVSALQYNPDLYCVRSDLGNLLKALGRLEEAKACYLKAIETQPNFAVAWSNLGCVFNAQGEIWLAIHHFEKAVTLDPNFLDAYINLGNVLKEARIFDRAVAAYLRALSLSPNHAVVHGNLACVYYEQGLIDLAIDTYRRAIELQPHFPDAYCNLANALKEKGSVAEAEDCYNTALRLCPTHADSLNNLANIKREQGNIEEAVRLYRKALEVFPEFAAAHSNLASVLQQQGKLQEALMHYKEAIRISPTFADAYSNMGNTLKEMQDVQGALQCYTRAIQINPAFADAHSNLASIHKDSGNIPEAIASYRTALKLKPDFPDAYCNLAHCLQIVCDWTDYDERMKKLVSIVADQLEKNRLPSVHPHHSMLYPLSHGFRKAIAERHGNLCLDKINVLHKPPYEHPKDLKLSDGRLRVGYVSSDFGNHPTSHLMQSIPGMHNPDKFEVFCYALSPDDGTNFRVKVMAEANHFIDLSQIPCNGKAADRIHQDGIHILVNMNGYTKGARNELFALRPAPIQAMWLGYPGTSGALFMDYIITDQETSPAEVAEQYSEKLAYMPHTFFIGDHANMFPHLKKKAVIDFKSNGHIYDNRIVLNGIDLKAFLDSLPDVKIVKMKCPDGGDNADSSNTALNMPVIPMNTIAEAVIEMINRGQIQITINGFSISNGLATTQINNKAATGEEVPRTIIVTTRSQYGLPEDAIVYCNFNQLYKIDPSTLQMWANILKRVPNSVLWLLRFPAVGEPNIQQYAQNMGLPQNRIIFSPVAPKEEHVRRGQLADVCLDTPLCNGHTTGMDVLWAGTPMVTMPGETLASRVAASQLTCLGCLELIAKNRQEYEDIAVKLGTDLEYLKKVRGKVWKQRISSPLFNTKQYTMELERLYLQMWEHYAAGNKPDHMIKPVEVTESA


How the values were obtained:
[1] = target: T1, HA-OGT (O-GlcNAc transferase); experiment: co-IP; HEK293T cells co-transfected with HA-OGT and Myc-cyclin D1 for 48 h (non-transfected cells as a further lane); lysis in RIPA without SDS; IP with anti-cyclin D1 or anti-OGT antibody and protein A/G beads; washes three times in RIPA and once in RIPA with 450 mM NaCl; blots for OGT, OGA and cyclin D1; non-relevant IgG as negative control
Myc-cyclin D1 (human) = Myc-cyclin D1 (human) (UniProt P24385); experiment: as above
[2] = target: T2, O-GlcNAc transferase (OGT) (endogenous, HEK293T) (human (endogenous in HEK293T)); experiment: as above
[3] = target: cyclin D1 (endogenous, HCT116) (human (endogenous in HCT116)) (UniProt P24385); experiment: co-IP; endogenous proteins of HCT116 cells, treated overnight with DMSO or ThG (1 uM); IP of endogenous cyclin D1 and OGT; blots with OGT and cycD1 antibodies
[4] = target: cyclin D1 (endogenous, MCF7) (human (endogenous in MCF7)) (UniProt P24385); experiment: proximity ligation; in situ PLA (Duolink) on fixed MCF7 cells with antibodies against cyclin D1 (A12) and OGT (Ti-14); quiescent cells (0) and 6 h, 15 h, 21 h after serum stimulation; confocal microscopy

| Molecule | binding [1] | binding (Myc-cyclin D1 (human)) | other results |
| --- | --- | --- | --- |
| Myc-cyclin D1 (from UniProt P24385 1-295) | binds |  |  |
| HA-OGT (O-GlcNAc transferase) (enzyme, UniProt O15294 1-1046) MASSVGNVADSTEPTKRMLSFQGLAELAHREYQAGDFEAAERHCMQLWRQEPDNTGVLLLLSSIHFQCRRLDRSAHFSTLAIKQNPLLAEAYSNLGNVYKERGQLQEAIEHYRHALRLKPDFIDGYINLAAALVAAGDMEGAVQAYVSALQYNPDLYCVRSDLGNLLKALGRLEEAKACYLKAIETQPNFAVAWSNLGCVFNAQGEIWLAIHHFEKAVTLDPNFLDAYINLGNVLKEARIFDRAVAAYLRALSLSPNHAVVHGNLACVYYEQGLIDLAIDTYRRAIELQPHFPDAYCNLANALKEKGSVAEAEDCYNTALRLCPTHADSLNNLANIKREQGNIEEAVRLYRKALEVFPEFAAAHSNLASVLQQQGKLQEALMHYKEAIRISPTFADAYSNMGNTLKEMQDVQGALQCYTRAIQINPAFADAHSNLASIHKDSGNIPEAIASYRTALKLKPDFPDAYCNLAHCLQIVCDWTDYDERMKKLVSIVADQLEKNRLPSVHPHHSMLYPLSHGFRKAIAERHGNLCLDKINVLHKPPYEHPKDLKLSDGRLRVGYVSSDFGNHPTSHLMQSIPGMHNPDKFEVFCYALSPDDGTNFRVKVMAEANHFIDLSQIPCNGKAADRIHQDGIHILVNMNGYTKGARNELFALRPAPIQAMWLGYPGTSGALFMDYIITDQETSPAEVAEQYSEKLAYMPHTFFIGDHANMFPHLKKKAVIDFKSNGHIYDNRIVLNGIDLKAFLDSLPDVKIVKMKCPDGGDNADSSNTALNMPVIPMNTIAEAVIEMINRGQIQITINGFSISNGLATTQINNKAATGEEVPRTIIVTTRSQYGLPEDAIVYCNFNQLYKIDPSTLQMWANILKRVPNSVLWLLRFPAVGEPNIQQYAQNMGLPQNRIIFSPVAPKEEHVRRGQLADVCLDTPLCNGHTTGMDVLWAGTPMVTMPGETLASRVAASQLTCLGCLELIAKNRQEYEDIAVKLGTDLEYLKKVRGKVWKQRISSPLFNTKQYTMELERLYLQMWEHYAAGNKPDHMIKPVEVTESA |  | binds |  |
| O-GlcNAcase (OGA) (enzyme, UniProt O60502 1-916) MVQKESQATLEERESELSSNPAASAGASLEPPAAPAPGEDNPAGAGGAAVAGAAGGARRFLCGVVEGFYGRPWVMEQRKELFRRLQKWELNTYLYAPKDDYKHRMFWREMYSVEEAEQLMTLISAAREYEIEFIYAISPGLDITFSNPKEVSTLKRKLDQVSQFGCRSFALLFDDIDHNMCAADKEVFSSFAHAQVSITNEIYQYLGEPETFLFCPTEYCGTFCYPNVSQSPYLRTVGEKLLPGIEVLWTGPKVVSKEIPVESIEEVSKIIKRAPVIWDNIHANDYDQKRLFLGPYKGRSTELIPRLKGVLTNPNCEFEANYVAIHTLATWYKSNMNGVRKDVVMTDSEDSTVSIQIKLENEGSDEDIETDVLYSPQMALKLALTEWLQEFGVPHQYSSRQVAHSGAKASVVDGTPLVAAPSLNATTVVTTVYQEPIMSQGAALSGEPTTLTKEEEKKQPDEEPMDMVVEKQEETDHKNDNQILSEIVEAKMAEELKPMDTDKESIAESKSPEMSMQEDCISDIAPMQTDEQTNKEQFVPGPNEKPLYTAEPVTLEDLQLLADLFYLPYEHGPKGAQMLREFQWLRANSSVVSVNCKGKDSEKIEEWRSRAAKFEEMCGLVMGMFTRLSNCANRTILYDMYSYVWDIKSIMSMVKSFVQWLGCRSHSSAQFLIGDQEPWAFRGGLAGEFQRLLPIDGANDLFFQPPPLTPTSKVYTIRPYFPKDEASVYKICREMYDDGVGLPFQSQPDLIGDKLVGGLLSLSLDYCFVLEDEDGICGYALGTVDVTPFIKKCKISWIPFMQEKYTKPNGDKELSEAEKIMLSFHEEQEVLPETFLANFPSLIKMDIHKKVTDPSVAKSMMACLLSSLKANGSRGAFCEVRPDDKRILEFYSKLGCFEIAKMEGFPKDVVILGRSL | binds | no binding | binding [2]: binds |
| O-GlcNAc transferase (OGT) (endogenous, HCT116) (enzyme, UniProt O15294 1-1046) MASSVGNVADSTEPTKRMLSFQGLAELAHREYQAGDFEAAERHCMQLWRQEPDNTGVLLLLSSIHFQCRRLDRSAHFSTLAIKQNPLLAEAYSNLGNVYKERGQLQEAIEHYRHALRLKPDFIDGYINLAAALVAAGDMEGAVQAYVSALQYNPDLYCVRSDLGNLLKALGRLEEAKACYLKAIETQPNFAVAWSNLGCVFNAQGEIWLAIHHFEKAVTLDPNFLDAYINLGNVLKEARIFDRAVAAYLRALSLSPNHAVVHGNLACVYYEQGLIDLAIDTYRRAIELQPHFPDAYCNLANALKEKGSVAEAEDCYNTALRLCPTHADSLNNLANIKREQGNIEEAVRLYRKALEVFPEFAAAHSNLASVLQQQGKLQEALMHYKEAIRISPTFADAYSNMGNTLKEMQDVQGALQCYTRAIQINPAFADAHSNLASIHKDSGNIPEAIASYRTALKLKPDFPDAYCNLAHCLQIVCDWTDYDERMKKLVSIVADQLEKNRLPSVHPHHSMLYPLSHGFRKAIAERHGNLCLDKINVLHKPPYEHPKDLKLSDGRLRVGYVSSDFGNHPTSHLMQSIPGMHNPDKFEVFCYALSPDDGTNFRVKVMAEANHFIDLSQIPCNGKAADRIHQDGIHILVNMNGYTKGARNELFALRPAPIQAMWLGYPGTSGALFMDYIITDQETSPAEVAEQYSEKLAYMPHTFFIGDHANMFPHLKKKAVIDFKSNGHIYDNRIVLNGIDLKAFLDSLPDVKIVKMKCPDGGDNADSSNTALNMPVIPMNTIAEAVIEMINRGQIQITINGFSISNGLATTQINNKAATGEEVPRTIIVTTRSQYGLPEDAIVYCNFNQLYKIDPSTLQMWANILKRVPNSVLWLLRFPAVGEPNIQQYAQNMGLPQNRIIFSPVAPKEEHVRRGQLADVCLDTPLCNGHTTGMDVLWAGTPMVTMPGETLASRVAASQLTCLGCLELIAKNRQEYEDIAVKLGTDLEYLKKVRGKVWKQRISSPLFNTKQYTMELERLYLQMWEHYAAGNKPDHMIKPVEVTESA |  |  | binding [3]: binds |
| O-GlcNAc transferase (OGT) (endogenous, MCF7) (enzyme, UniProt O15294 1-1046) MASSVGNVADSTEPTKRMLSFQGLAELAHREYQAGDFEAAERHCMQLWRQEPDNTGVLLLLSSIHFQCRRLDRSAHFSTLAIKQNPLLAEAYSNLGNVYKERGQLQEAIEHYRHALRLKPDFIDGYINLAAALVAAGDMEGAVQAYVSALQYNPDLYCVRSDLGNLLKALGRLEEAKACYLKAIETQPNFAVAWSNLGCVFNAQGEIWLAIHHFEKAVTLDPNFLDAYINLGNVLKEARIFDRAVAAYLRALSLSPNHAVVHGNLACVYYEQGLIDLAIDTYRRAIELQPHFPDAYCNLANALKEKGSVAEAEDCYNTALRLCPTHADSLNNLANIKREQGNIEEAVRLYRKALEVFPEFAAAHSNLASVLQQQGKLQEALMHYKEAIRISPTFADAYSNMGNTLKEMQDVQGALQCYTRAIQINPAFADAHSNLASIHKDSGNIPEAIASYRTALKLKPDFPDAYCNLAHCLQIVCDWTDYDERMKKLVSIVADQLEKNRLPSVHPHHSMLYPLSHGFRKAIAERHGNLCLDKINVLHKPPYEHPKDLKLSDGRLRVGYVSSDFGNHPTSHLMQSIPGMHNPDKFEVFCYALSPDDGTNFRVKVMAEANHFIDLSQIPCNGKAADRIHQDGIHILVNMNGYTKGARNELFALRPAPIQAMWLGYPGTSGALFMDYIITDQETSPAEVAEQYSEKLAYMPHTFFIGDHANMFPHLKKKAVIDFKSNGHIYDNRIVLNGIDLKAFLDSLPDVKIVKMKCPDGGDNADSSNTALNMPVIPMNTIAEAVIEMINRGQIQITINGFSISNGLATTQINNKAATGEEVPRTIIVTTRSQYGLPEDAIVYCNFNQLYKIDPSTLQMWANILKRVPNSVLWLLRFPAVGEPNIQQYAQNMGLPQNRIIFSPVAPKEEHVRRGQLADVCLDTPLCNGHTTGMDVLWAGTPMVTMPGETLASRVAASQLTCLGCLELIAKNRQEYEDIAVKLGTDLEYLKKVRGKVWKQRISSPLFNTKQYTMELERLYLQMWEHYAAGNKPDHMIKPVEVTESA |  |  | binding [4]: binds |
